Laboratory results taken from PubChem BioAssay AID540256 (National Center for Advancing Translational Sciences (NCATS), 2011).
In all, about 300,000 compounds went through this assay and about 3,700 (1.2%) were called active. Inconclusive means that the source gave no clear call. Such entries were picked first, then a sample of the others. The call rests on the fitted dose curve; tested in HEK293 cells. Potencies of inconclusive entries are doubtful fits and often do not repeat.

assay: qHTS for Inhibitors of binding or entry into cells for Lassa Virus; details: Lassa virus pseudotype entry inhibition, cell reporter; series mostly up to 37.9 µM; further: nearly all actives have a fitted effect of over 50% in size
Potency means the concentration at half of the fitted maximal effect.

Structure (SMILES)	Potency
CCCCn1cnc2c(c(-c3ccccc3)c(-c3ccccc3)n2Cc2ccco2)c1=N	inactive
CC1CN(C(=O)c2cccc(S(=O)(=O)N3CCN(c4ccc(F)cc4)CC3)c2)CC(C)O1 (stereo not drawn)	inconclusive: 0.112 µM [inhibitor, full curve, poor fit]
COc1cc(Br)c(C2C(C#N)=C(N)Oc3n[nH]c(-c4cccnc4)c32)cc1OC (stereo not drawn)	inactive
Cc1cc(C(=O)OCC(=O)N2CC(=O)Nc3ccccc32)c(C)n1-c1ccc(F)cc1	inconclusive: 7.94 µM [inhibitor, partial curve, poor fit]
N#Cc1c(N2CCN(C(=O)c3ccccc3)CC2)nc(-c2ccccc2)c2c1CCCC2	inconclusive: 35.5 µM [inhibitor, single point]
Cc1cc(-c2csc3nc[nH]c(=S)c23)cc(C)c1C	inconclusive: 6.31 µM [inhibitor, full curve, poor fit]
COc1ccc(-c2cc(C(=O)Nc3cc(C)nn3-c3ccccc3)no2)cc1OC	inactive
C/C(=N\Nc1ccc([N+](=O)[O-])cc1)c1ccc(N2CCOCC2)cc1	inactive
CC(=O)Nc1cc([N+](=O)[O-])ccc1N1CCOCC1	inactive
O=C1N=C(N2CCOCC2)S/C1=C/c1cc2c(cc1[N+](=O)[O-])OCO2	inconclusive: 35.5 µM [inhibitor, single point]
CCOC(=O)c1[nH]c2ccc(Br)cc2c1NC(=O)CCN1CCN(C(=O)OCC)CC1	inactive
COC(=O)C1=CN(c2ccc(F)cc2)C=C(C(=O)OC)C1c1ccc([N+](=O)[O-])cc1	inconclusive: 20 µM [inhibitor, partial curve, poor fit]
COc1ccc(NC(=O)NC(c2ccccc2)c2ccccc2)c(OC)c1	inconclusive: 7.94 µM [activator, partial curve, poor fit]
COc1ccc(-c2nn(-c3ccccc3)cc2C(=O)Nc2nccs2)cc1OC	inconclusive: 11.2 µM [inhibitor, partial curve, poor fit]
CC(C)N1CC2=C(OC(N)=C(C#N)C2c2cccnc2)/C(=C/c2cccnc2)C1 (stereo not drawn)	inactive
Cc1ccc(N2CCN(C(=O)C3CCN(S(=O)(=O)c4cccc5nsnc45)CC3)CC2C)cc1 (stereo not drawn)	inconclusive: 5.62 µM [inhibitor, full curve, poor fit]
COc1ccc(NS(=O)(=O)c2cc(NC(=O)c3ccc(C)s3)ccc2N2CCOCC2)cc1	inconclusive: 25.1 µM [inhibitor, single point]
O=C1NC(c2ccccc2)C(C(=O)c2cccs2)=C1O (stereo not drawn)	inactive
CCc1ccccc1NC(=O)CCCn1c(=O)c2cccn2c2ccccc21	inconclusive: 6.31 µM [inhibitor, partial curve, poor fit]
COc1ccc(NC(=O)C2Cc3ccccc3CN2S(=O)(=O)c2ccccc2)cc1OC (stereo not drawn)	inactive
Fc1ccccc1CSc1nc2ccccc2[nH]1	inconclusive: 7.08 µM [inhibitor, partial curve]
COc1ccc(C(=O)Oc2ccc(C(c3c(C)[nH][nH]c3=O)c3c(C)[nH][nH]c3=O)cc2)cc1	inactive

3 consecutive records from above:
Structure (SMILES)	Potency
COc1ccc(NC(=O)C2Cc3ccccc3CN2S(=O)(=O)c2ccccc2)cc1OC (stereo not drawn)	inactive
Fc1ccccc1CSc1nc2ccccc2[nH]1	inconclusive: 7.08 µM [inhibitor, partial curve]
COc1ccc(C(=O)Oc2ccc(C(c3c(C)[nH][nH]c3=O)c3c(C)[nH][nH]c3=O)cc2)cc1	inactive

The list goes on:

Structure (SMILES)	Potency
COc1ccc(NC(=O)c2cccs2)cc1	inconclusive: 0.562 µM [activator, partial curve, poor fit]
Cc1ccc2cc(/C=N/NC(=O)CN3CCCCC3)c(Cl)nc2c1	inactive
Cc1c(Cl)cccc1NC(=O)c1oc2ccc(S(=O)(=O)N3CCC4(CC3)OCCO4)cc2c1C	inconclusive: 35.5 µM [inhibitor, single point]
CC(Sc1ccccc1)C(=O)NNC(=O)c1ccncc1 (stereo not drawn)	inconclusive: 11.2 µM [activator, partial curve, poor fit]
COc1ccccc1C(=O)NNC(=O)c1ccccc1F	inactive
CCOC(=O)C(Cc1ccccc1)NC(=O)Cn1nnc(-c2ccc(SC)cc2)n1 (stereo not drawn)	inconclusive: 0.231 µM [activator, full curve, poor fit]
Cc1ccc(-c2cc(NC(=O)c3cccc(C)c3)on2)cc1	inactive
CCc1nonc1NC(=O)c1oc2cc(C)c(C)cc2c1C	inconclusive: 3.55 µM [activator, single point]
CCN1CCN(c2ccc(S(=O)(=O)N3CCCCC3)cc2NC(=O)c2cccc(Cl)c2)CC1	inconclusive: 35.5 µM [inhibitor, single point]
Cc1cccc(NC(=O)c2ccc3c(c2)CCN3S(C)(=O)=O)c1	inconclusive: 1 µM [activator, full curve]
O=C1C=C(NCc2ccccc2)c2ccccc2C1=O	inconclusive: 12.6 µM [inhibitor, partial curve, poor fit]
O=C(NCCCN1CCOCC1)c1cc2cc(Br)ccc2oc1=O	inactive
OCCCCCN=c1cc(-c2ccccc2)oc2ccc(Cl)cc12	inconclusive: 25.1 µM [inhibitor, partial curve, poor fit]
Cc1ccccc1C(=O)Nc1ccc(N2CCOCC2)nc1	inconclusive: 32.6 µM [activator, partial curve, poor fit]
COc1cc(/C=C/C(=O)O)cc(Br)c1O	inactive
Cc1ccccc1C(=O)N1CCN(c2ccc(NC(=O)CSc3ccc(Cl)cc3)cc2)CC1	inconclusive: 35.5 µM [inhibitor, single point]
Cc1ccc(C(=O)N(NC2=NS(=O)(=O)c3ccccc32)S(=O)(=O)c2ccc(C)cc2)cc1	inconclusive: 0.631 µM [inhibitor, full curve, poor fit]
Cc1ccc(-c2nnc(Nc3ccc(CC(N)=O)cc3)c3ccccc23)cc1	inconclusive: 1.46 µM [inhibitor, partial curve, poor fit]
COc1ccc(C(C)C)cc1S(=O)(=O)n1cnc(C)c1	inconclusive: 18.3 µM [inhibitor, single point]
CCCS(=O)(=O)c1c(S(=O)(=O)CCC)c2cc(-c3ccncc3)ccn2c1C(=O)OC	inactive
NC1(N)OC(CN2C(=O)c3ccccc3C2=O)CS1 (stereo not drawn)	inconclusive: 5.01 µM [inhibitor, full curve, poor fit]
